Data: the supplement of paper PMC12823440, “Inhibitors supercharge kinase turnover through native proteolytic circuits” (Nature, 2025)
Where a name gives a salt, the structure may show the parent alone. The list shows a part of the results. Hit calls seldom repeat between salt and free forms of one compound.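 In K562 cells expressing nanoluciferase-fused kinases, luminescence was recorded at 4 h intervals between 2 and 18 h, normalized as percent of control with DMSO at 100% and a positive control at 0%. A significant (2 sigma) signal drop marks a time point as decreased. The authors' rule for a hit is not shown and takes in more than the number of time points.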

Sequences of proteins named here, by UniProt entry; tags and fusion partners are left off. A change or cut given only in a name is not applied to a line headed by its entry.
UniProt P28482, whole entry: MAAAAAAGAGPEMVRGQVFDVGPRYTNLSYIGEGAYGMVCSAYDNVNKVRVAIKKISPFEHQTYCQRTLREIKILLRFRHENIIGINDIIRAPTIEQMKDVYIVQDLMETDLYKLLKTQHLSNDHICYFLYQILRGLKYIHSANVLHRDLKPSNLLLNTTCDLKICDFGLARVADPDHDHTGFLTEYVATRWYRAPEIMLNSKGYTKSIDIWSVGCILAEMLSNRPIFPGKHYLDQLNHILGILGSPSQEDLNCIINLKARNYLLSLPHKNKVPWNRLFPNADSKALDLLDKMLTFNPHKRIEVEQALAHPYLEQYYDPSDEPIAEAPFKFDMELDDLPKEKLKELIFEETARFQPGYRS
UniProt P31152, whole entry: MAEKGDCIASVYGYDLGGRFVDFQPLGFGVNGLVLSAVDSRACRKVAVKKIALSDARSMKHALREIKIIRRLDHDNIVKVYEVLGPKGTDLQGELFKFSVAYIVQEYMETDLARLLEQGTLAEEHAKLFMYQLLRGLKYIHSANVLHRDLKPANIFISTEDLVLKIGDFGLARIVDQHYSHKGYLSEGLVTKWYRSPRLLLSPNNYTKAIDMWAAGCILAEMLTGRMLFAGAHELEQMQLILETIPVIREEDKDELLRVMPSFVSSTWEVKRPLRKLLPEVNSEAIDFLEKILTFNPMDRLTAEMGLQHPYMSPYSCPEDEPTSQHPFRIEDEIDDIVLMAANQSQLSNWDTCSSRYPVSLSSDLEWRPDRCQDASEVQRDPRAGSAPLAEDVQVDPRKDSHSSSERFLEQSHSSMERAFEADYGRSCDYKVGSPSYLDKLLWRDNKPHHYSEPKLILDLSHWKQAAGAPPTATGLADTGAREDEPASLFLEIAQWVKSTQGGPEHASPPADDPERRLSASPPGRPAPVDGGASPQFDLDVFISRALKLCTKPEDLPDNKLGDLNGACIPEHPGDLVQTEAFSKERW
UniProt P49137, whole entry, looked up: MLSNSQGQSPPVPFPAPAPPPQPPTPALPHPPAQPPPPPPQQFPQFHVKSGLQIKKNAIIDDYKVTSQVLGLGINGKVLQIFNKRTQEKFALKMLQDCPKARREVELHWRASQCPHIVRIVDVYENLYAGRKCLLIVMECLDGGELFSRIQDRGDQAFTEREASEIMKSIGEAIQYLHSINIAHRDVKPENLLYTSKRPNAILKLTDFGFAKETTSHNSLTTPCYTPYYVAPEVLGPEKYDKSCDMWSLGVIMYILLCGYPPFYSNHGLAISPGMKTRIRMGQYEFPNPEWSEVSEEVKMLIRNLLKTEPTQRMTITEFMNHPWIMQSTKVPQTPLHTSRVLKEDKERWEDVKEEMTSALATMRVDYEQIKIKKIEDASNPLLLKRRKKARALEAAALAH
UniProt Q9BUB5: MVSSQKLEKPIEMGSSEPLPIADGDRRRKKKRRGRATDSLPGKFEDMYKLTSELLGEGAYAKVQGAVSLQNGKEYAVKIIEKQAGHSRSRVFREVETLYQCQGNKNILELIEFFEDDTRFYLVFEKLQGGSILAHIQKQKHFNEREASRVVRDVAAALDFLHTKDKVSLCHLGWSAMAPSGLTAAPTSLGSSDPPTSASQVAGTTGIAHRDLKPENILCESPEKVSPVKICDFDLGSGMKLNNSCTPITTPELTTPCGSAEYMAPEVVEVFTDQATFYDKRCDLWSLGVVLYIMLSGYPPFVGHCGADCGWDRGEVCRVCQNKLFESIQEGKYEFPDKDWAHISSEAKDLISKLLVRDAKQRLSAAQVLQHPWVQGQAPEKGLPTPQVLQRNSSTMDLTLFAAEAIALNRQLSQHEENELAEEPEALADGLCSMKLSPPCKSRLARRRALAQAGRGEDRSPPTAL
UniProt Q16620, whole entry, looked up: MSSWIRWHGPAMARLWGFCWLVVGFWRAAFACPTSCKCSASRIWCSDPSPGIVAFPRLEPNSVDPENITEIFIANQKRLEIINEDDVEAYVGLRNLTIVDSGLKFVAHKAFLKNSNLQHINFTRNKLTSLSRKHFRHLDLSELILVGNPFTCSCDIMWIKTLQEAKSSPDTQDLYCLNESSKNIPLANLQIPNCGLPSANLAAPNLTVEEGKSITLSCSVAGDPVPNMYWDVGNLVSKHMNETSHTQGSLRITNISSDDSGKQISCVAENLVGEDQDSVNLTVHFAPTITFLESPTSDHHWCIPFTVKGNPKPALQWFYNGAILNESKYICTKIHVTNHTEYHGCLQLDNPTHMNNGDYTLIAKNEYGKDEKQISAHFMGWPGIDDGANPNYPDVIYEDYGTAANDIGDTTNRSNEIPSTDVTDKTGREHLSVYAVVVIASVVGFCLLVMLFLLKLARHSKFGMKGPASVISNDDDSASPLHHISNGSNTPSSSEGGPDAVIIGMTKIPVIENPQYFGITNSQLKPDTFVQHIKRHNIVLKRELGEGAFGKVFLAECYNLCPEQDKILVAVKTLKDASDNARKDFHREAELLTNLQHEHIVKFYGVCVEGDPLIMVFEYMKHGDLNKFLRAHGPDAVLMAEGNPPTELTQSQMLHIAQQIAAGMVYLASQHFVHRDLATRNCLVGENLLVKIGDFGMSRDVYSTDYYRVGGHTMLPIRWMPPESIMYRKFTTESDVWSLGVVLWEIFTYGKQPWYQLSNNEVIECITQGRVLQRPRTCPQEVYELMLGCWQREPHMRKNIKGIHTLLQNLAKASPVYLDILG
UniProt Q16288, whole entry, looked up: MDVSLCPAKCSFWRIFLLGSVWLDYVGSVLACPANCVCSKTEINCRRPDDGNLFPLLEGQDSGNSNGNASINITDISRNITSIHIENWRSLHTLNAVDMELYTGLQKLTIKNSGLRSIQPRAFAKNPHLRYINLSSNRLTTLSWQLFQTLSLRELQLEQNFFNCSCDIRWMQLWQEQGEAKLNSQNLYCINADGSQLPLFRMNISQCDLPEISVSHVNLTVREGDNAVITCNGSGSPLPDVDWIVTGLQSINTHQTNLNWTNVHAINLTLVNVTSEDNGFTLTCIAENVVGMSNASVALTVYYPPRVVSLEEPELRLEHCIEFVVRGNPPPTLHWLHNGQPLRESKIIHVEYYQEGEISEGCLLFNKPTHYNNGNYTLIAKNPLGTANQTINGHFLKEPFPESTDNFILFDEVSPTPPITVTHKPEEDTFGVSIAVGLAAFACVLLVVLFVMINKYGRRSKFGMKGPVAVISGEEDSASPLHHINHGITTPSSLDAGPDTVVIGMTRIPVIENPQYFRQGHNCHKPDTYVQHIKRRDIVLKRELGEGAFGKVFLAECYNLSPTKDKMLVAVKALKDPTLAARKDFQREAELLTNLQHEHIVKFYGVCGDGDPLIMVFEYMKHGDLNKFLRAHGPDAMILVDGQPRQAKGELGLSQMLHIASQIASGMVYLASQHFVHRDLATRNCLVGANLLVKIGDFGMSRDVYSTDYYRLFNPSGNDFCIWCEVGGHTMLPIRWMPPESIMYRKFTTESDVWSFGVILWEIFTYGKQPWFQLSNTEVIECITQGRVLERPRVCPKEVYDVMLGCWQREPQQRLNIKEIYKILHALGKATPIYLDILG
UniProt O96013: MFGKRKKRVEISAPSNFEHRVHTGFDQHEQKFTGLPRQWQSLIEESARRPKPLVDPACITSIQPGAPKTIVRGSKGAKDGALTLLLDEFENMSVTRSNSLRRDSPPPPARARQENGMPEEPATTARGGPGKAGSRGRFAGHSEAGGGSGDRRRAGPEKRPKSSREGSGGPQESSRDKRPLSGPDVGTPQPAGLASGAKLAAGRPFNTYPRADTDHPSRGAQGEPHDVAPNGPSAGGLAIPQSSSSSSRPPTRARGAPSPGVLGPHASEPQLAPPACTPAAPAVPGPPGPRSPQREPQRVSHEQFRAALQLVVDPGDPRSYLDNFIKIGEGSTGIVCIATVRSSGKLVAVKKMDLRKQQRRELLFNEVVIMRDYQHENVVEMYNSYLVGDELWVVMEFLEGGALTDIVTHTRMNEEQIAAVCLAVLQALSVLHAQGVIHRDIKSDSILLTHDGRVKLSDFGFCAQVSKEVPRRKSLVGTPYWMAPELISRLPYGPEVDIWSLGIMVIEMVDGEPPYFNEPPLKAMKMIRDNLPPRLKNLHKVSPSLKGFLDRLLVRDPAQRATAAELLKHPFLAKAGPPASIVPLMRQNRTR
UniProt Q96KB5: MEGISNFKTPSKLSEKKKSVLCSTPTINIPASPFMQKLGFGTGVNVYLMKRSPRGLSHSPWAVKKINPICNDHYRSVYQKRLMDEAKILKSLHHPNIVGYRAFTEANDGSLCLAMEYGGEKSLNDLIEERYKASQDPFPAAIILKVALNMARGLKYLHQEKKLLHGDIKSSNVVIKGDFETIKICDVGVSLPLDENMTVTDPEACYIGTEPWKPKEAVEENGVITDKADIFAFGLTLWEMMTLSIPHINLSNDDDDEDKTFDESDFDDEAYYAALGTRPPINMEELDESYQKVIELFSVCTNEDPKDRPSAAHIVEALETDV
UniProt P09619, whole entry: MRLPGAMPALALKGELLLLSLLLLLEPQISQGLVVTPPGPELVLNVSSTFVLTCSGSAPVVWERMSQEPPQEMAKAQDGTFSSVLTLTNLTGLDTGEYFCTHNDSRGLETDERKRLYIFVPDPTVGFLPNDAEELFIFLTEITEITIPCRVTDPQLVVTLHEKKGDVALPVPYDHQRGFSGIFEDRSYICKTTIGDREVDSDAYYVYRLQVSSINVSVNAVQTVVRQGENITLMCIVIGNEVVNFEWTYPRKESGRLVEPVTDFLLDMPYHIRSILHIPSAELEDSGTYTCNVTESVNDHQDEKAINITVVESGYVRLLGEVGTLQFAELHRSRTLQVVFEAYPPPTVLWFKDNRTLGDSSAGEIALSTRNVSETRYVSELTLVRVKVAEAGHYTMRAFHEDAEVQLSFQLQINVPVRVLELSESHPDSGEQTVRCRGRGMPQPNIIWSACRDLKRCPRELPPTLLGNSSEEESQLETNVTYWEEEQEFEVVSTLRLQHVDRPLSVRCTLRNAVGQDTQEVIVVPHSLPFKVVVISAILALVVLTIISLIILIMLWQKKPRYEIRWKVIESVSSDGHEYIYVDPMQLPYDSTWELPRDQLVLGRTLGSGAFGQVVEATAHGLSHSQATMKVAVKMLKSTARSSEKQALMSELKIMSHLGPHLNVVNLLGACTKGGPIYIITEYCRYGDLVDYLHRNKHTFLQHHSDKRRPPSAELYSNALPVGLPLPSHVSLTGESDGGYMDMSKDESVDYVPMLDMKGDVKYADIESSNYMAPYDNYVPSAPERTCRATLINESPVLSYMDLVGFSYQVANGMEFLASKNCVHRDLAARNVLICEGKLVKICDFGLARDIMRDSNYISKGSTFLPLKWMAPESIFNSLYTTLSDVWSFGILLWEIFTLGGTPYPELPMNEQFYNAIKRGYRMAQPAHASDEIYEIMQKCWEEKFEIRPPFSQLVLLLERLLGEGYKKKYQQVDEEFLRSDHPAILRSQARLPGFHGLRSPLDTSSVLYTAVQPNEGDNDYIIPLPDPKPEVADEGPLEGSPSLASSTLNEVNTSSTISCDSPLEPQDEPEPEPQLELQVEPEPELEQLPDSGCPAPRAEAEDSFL
UniProt Q15118, whole entry, looked up: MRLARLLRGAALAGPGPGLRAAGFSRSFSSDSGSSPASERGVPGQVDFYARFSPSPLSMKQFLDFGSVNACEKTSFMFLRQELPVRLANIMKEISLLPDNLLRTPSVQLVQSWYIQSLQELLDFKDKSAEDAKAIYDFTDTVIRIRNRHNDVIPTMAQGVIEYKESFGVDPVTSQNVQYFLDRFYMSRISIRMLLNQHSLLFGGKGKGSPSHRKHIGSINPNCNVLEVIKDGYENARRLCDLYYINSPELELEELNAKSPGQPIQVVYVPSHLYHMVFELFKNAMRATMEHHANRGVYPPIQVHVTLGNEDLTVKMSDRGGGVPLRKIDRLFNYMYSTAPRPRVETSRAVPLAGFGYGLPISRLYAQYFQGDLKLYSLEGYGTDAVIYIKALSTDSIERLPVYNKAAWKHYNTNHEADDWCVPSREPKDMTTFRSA

What was measured:
Assay in all cases: kinase-Nluc reporter destabilization hit call (1 = scored as downregulated) (binary); higher = compound decreases kinase abundance
Conditions in all cases: K562; 2-18 h
[1] = biological target: MAPK1 (UniProt P28482)
[2] = biological target: MAPK4 (UniProt P31152)
[3] = biological target: MAPKAPK2 (UniProt P49137)
[4] = biological target: MKNK1 (UniProt Q9BUB5)
[5] = biological target: NTRK2 (UniProt Q16620)
[6] = biological target: NTRK3 (UniProt Q16288)
[7] = biological target: PAK4 (UniProt O96013)
[8] = biological target: PBK (UniProt Q96KB5)
[9] = biological target: PDGFRB (UniProt P09619)
[10] = biological target: PDK1 (UniProt Q15118)

Measured: kinase-Nluc reporter destabilization hit call

CC(C)c1ccc2oc3nc(N)c(C(=O)O)cc3c(=O)c2c1 [Amlexanox] (10 µM)
inactive: [1] 0 | [2] 0 | [3] 0 | [4] 0 | [5] 0 | [6] 0 | [7] 0 | [8] 0 | [9] 0 | [10] 0

O=C1c2ccccc2-c2n[nH]c3cccc1c23 (10 µM)
inactive: [1] 0 | [2] 0 | [3] 0 | [4] 0 | [5] 0 | [6] 0 | [7] 0 | [8] 0 | [9] 0 | [10] 0

NC(=O)c1ccc2nc(-c3ccc(Oc4ccc(Cl)cc4)cc3)[nH]c2c1 (10 µM)
inactive: [1] 0 | [2] 0 | [3] 0 | [4] 0 | [5] 0 | [6] 0 | [7] 0 | [8] 0 | [9] 0 | [10] 0

CC(=O)N1CCN(c2ccc(OCC3COC(Cn4ccnc4)(c4ccc(Cl)cc4Cl)O3)cc2)CC1 (centres undefined) [Ketoconazole] (2.5 µM)
inactive: [1] 0 | [2] 0 | [3] 0 | [4] 0 | [5] 0 | [6] 0 | [7] 0 | [8] 0 | [9] 0 | [10] 0

Cn1c(=O)c(Oc2ccc(F)cc2F)cc2cnc(NC3CCOCC3)nc21 [R1487 (Hydrochloride)] (10 µM)
inactive: [1] 0 | [2] 0 | [3] 0 | [4] 0 | [5] 0 | [6] 0 | [7] 0 | [8] 0 | [9] 0 | [10] 0

Cc1ccc(NC(=O)Nc2nnc(Sc3ncnc4cc(OCCCN5CCOCC5)ccc34)s2)cc1 (10 µM)
inactive: [1] 0 | [2] 0 | [3] 0 | [4] 0 | [5] 0 | [6] 0 | [7] 0 | [8] 0 | [9] 0 | [10] 0

N#Cc1ccc2[nH]c(O)c(-c3ccc(CN4CCOCC4)cn3)c2c1 (10 µM)
inactive: [1] 0 | [2] 0 | [3] 0 | [4] 0 | [5] 0 | [6] 0 | [7] 0 | [8] 0 | [9] 0 | [10] 0

CNC(=O)c1ccccc1Nc1nc(Nc2ccc(N3CCOCC3)cc2OC)ncc1Cl (2.5 µM)
inactive: [1] 0 | [2] 0 | [3] 0 | [4] 0 | [5] 0 | [6] 0 | [7] 0 | [8] 0 | [9] 0 | [10] 0

CC(C)C(=O)Nc1ncc(-c2cc(C(F)F)nn2-c2c(Cl)cccc2Cl)s1 (10 µM)
inactive: [1] 0 | [2] 0 | [3] 0 | [4] 0 | [5] 0 | [6] 0 | [7] 0 | [8] 0 | [9] 0 | [10] 0

Cc1cc(CS(=O)(=O)c2ccccc2)cc(OCc2ccc(CN3CCC[C@@H]3CO)cc2)c1 [PF-543 (Citrate)] (10 µM)
inactive: [1] 0 | [2] 0 | [3] 0 | [4] 0 | [5] 0 | [6] 0 | [7] 0 | [8] 0 | [9] 0 | [10] 0

CCOc1cc2ncc(C#N)c(Nc3ccc(OCc4ccccn4)c(Cl)c3)c2cc1NC(=O)/C=C/CN(C)C [Neratinib] (10 µM)
inactive: [1] 0 | [2] 0 | [3] 0 | [4] 0 | [5] 0 | [6] 0 | [7] 0 | [8] 0 | [9] 0 | [10] 0

O=c1c(-c2ccc(O)cc2)coc2cc(O)cc(O)c12 [Genistein] (10 µM)
inactive: [1] 0 | [2] 0 | [3] 0 | [4] 0 | [5] 0 | [6] 0 | [7] 0 | [8] 0 | [9] 0 | [10] 0

CCN(CC)CCCCNc1ncc2cc(-c3c(Cl)cccc3Cl)c(NC(=O)NC(C)(C)C)nc2n1 (2.5 µM)
inactive: [1] 0 | [2] 0 | [3] 0 | [4] 0 | [5] 0 | [6] 0 | [7] 0 | [8] 0 | [9] 0 | [10] 0

Grouped by structure, the entries above with fluorine (2)
Cn1c(=O)c(Oc2ccc(F)cc2F)cc2cnc(NC3CCOCC3)nc21 [R1487 (Hydrochloride)] (10 µM)
inactive: [1] 0 | [2] 0 | [3] 0 | [4] 0 | [5] 0 | [6] 0 | [7] 0 | [8] 0 | [9] 0 | [10] 0

CC(C)C(=O)Nc1ncc(-c2cc(C(F)F)nn2-c2c(Cl)cccc2Cl)s1 (10 µM)
inactive: [1] 0 | [2] 0 | [3] 0 | [4] 0 | [5] 0 | [6] 0 | [7] 0 | [8] 0 | [9] 0 | [10] 0

(next part)

C/C=C(/C)C(=O)O[C@H]1Cc2cc3ccc(=O)oc3cc2OC1(C)C [Decursinol angelate] (10 µM)
inactive: [1] 0 | [2] 0 | [3] 0 | [4] 0 | [5] 0 | [6] 0 | [7] 0 | [8] 0 | [9] 0 | [10] 0

Cc1ccc2c(Nc3ccc(Cl)cc3)nccc2c1Nc1ncccc1-c1ncnc2nc[nH]c12 [Raf inhibitor 1] (2.5 µM)
inactive: [1] 0 | [2] 0 | [3] 0 | [4] 0 | [5] 0 | [6] 0 | [7] 0 | [8] 0 | [9] 0 | [10] 0

C=CC(=O)N[C@H]1COC[C@H]1Nc1ncc2cc(-c3c(Cl)c(OC)cc(OC)c3Cl)c(=O)n(C)c2n1 (10 µM)
inactive: [1] 0 | [2] 0 | [3] 0 | [4] 0 | [5] 0 | [6] 0 | [7] 0 | [8] 0 | [9] 0 | [10] 0

C[C@]1(O)C[C@@H](c2nc(-c3ccc4ccc(-c5ccccc5)nc4c3)c3c(N)nccn32)C1 [Linsitinib] (2.5 µM)
inactive: [1] 0 | [2] 0 | [3] 0 | [4] 0 | [5] 0 | [6] 0 | [7] 0 | [8] 0 | [9] 0 | [10] 0

CCCCC[C@H](O)CC(=O)CCc1ccc(O)c(OC)c1 [[6]-Gingerol] (10 µM)
inactive: [1] 0 | [2] 0 | [3] 0 | [4] 0 | [5] 0 | [6] 0 | [7] 0 | [8] 0 | [9] 0 | [10] 0

COc1c(Cl)cc2c([nH]c3cnccc32)c1NC(=O)c1cccnc1C (10 µM)
inactive: [1] 0 | [2] 0 | [3] 0 | [4] 0 | [5] 0 | [6] 0 | [7] 0 | [8] 0 | [9] 0 | [10] 0

CC(C)Oc1cc(Nc2nc(N[C@@H](C)c3ccc(F)cn3)ncc2Cl)n[nH]1 (10 µM)
inactive: [1] 0 | [2] 0 | [3] 0 | [4] 0 | [5] 0 | [6] 0 | [7] 0 | [8] 0 | [9] 0 | [10] 0

COc1cc(Oc2ccnc3cc(OC)c(OC)cc23)ccc1NC(=O)NC(C)c1nccs1 (centres undefined) (2.5 µM)
inactive: [1] 0 | [2] 0 | [3] 0 | [4] 0 | [5] 0 | [6] 0 | [7] 0 | [8] 0 | [9] 0 | [10] 0

Nc1ncnc2c1c(-c1ccc(Oc3ccccc3)cc1)cn2C1CCCC1 (2.5 µM)
inactive: [1] 0 | [2] 0 | [3] 0 | [4] 0 | [5] 0 | [6] 0 | [7] 0 | [8] 0 | [9] 0 | [10] 0

COc1ccc(C=C(C#N)c2cccnc2)cc1OC (10 µM)
inactive: [1] 0 | [2] 0 | [3] 0 | [4] 0 | [5] 0 | [6] 0 | [7] 0 | [8] 0 | [9] 0 | [10] 0

O=C(Nc1ccc(-c2ccnc(Nc3ccc(N4CCOCC4)cc3)n2)cc1)C1CCCN1 (centres undefined) (10 µM)
inactive: [1] 0 | [2] 0 | [3] 0 | [4] 0 | [5] 0 | [6] 0 | [7] 0 | [8] 0 | [9] 0 | [10] 0

CCN(CC)CCCCNc1ncc2cc(-c3cc(OC)cc(OC)c3)c(NC(=O)NC(C)(C)C)nc2n1 (10 µM)
inactive: [1] 0 | [2] 0 | [3] 0 | [4] 0 | [5] 0 | [6] 0 | [7] 0 | [8] 0 | [9] 0 | [10] 0

Nc1nc(OCC2CCCCC2)c2[nH]cnc2n1 (10 µM)
inactive: [1] 0 | [2] 0 | [3] 0 | [4] 0 | [5] 0 | [6] 0 | [7] 0 | [8] 0 | [9] 0 | [10] 0

COCc1c(-c2ccc(NC(=O)Nc3cc(C(F)(F)F)ccc3F)c(F)c2)c2c(N)ncnn2c1CN1CCOCC1 (2.5 µM)
inactive: [1] 0 | [2] 0 | [3] 0 | [4] 0 | [5] 0 | [6] 0 | [7] 0 | [8] 0 | [9] 0 | [10] 0

NS(=O)(=O)c1ccc(Nc2nc(OCC3CCCCC3)c3[nH]cnc3n2)cc1 (10 µM)
inactive: [1] 0 | [2] 0 | [3] 0 | [4] 0 | [5] 0 | [6] 0 | [7] 0 | [8] 0 | [9] 0 | [10] 0

O=C1NC(=NCc2cccs2)S/C1=C\c1ccc2ncccc2c1 (10 µM)
inactive: [1] 0 | [2] 0 | [3] 0 | [4] 0 | [5] 0 | [6] 0 | [7] 0 | [8] 0 | [9] 0 | [10] 0

C=CC(=O)N1CC[C@H](n2nc(C#Cc3cc(OC)cc(OC)c3)c3c(N)ncnc32)C1 [Futibatinib] (10 µM)
inactive: [1] 0 | [2] 0 | [3] 0 | [4] 0 | [5] 0 | [6] 0 | [7] 0 | [8] 0 | [9] 0 | [10] 0

COc1cc(F)cc([C@@H](CO)NC(=O)[C@@H](C)N2Cc3ccc(-c4nc(NC5CCOCC5)ncc4Cl)cc3C2=O)c1 [ERK1/2 inhibitor 2] (10 µM)
inactive: [2] 0 | [3] 0 | [4] 0 | [5] 0 | [6] 0 | [7] 0 | [8] 0 | [9] 0 | [10] 0
